PubChem BioAssay AID504805, Drosophila RNAi Screening Center | 2011

Test: 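Knock-downs that cause poly(A) RNA to build up in the nucleus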 (primary screen)
System: Drosophila S2R+ cells
Reagents: long dsRNA against Drosophila genes, 0.25 µg dsRNA per well
Duration: 4 days
Measurement: 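Microscope images of cells stained for poly(A) RNA with a fluorescent oligo-dT probe and for DNA, assessed visually, with a phenotype description given for each replicate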
The reagents shown are a selection, not the whole library. 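Phenotypes are words from visual inspection of images, not measured scores.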 The numbers tell different reagents against one gene apart. Names joined by + are all predicted targets of the reagent. Reagent sequences are not shown.

CG2685 scored phenotype, replicate 1 = poly(A) RNA held back in the nucleus; phenotype, replicate 2 = poly(A) RNA held back in the nucleus.
For Ice1 (Interacts with the C terminus of ELL 1) the deposit lists phenotype, replicate 1 = poly(A) RNA held back in the nucleus.
Knock-down of myd (mayday) gave: phenotype, replicate 1 = poly(A) RNA held back in the nucleus.
For RpL7 (Ribosomal protein L7), the values are phenotype, replicate 1 = poly(A) RNA held back in the nucleus; phenotype, replicate 2 = poly(A) RNA held back in the nucleus.
After knock-down of kni (knirps), the screen gave phenotype, replicate 1 = poly(A) RNA held back in the nucleus.
Against Tbcc (Tubulin-binding cofactor C) the deposit lists phenotype, replicate 1 = poly(A) RNA held back in the nucleus.
With knock-down of cas (castor) the results were phenotype, replicate 1 = poly(A) RNA held back in the nucleus.
Setd3 (SET domain containing 3) scored phenotype, replicate 1 = poly(A) RNA held back in the nucleus.
Against CG12236 #1, the entry reads phenotype, replicate 1 = poly(A) RNA held back in the nucleus; phenotype, replicate 2 = poly(A) RNA held back in the nucleus.
Depletion of CG12236 #2 came out at: phenotype, replicate 1 = poly(A) RNA held back in the nucleus.
Depletion of CG15577 came out at: phenotype, replicate 1 = poly(A) RNA held back in the nucleus.
For RpL9 (Ribosomal protein L9), the values are phenotype, replicate 1 = poly(A) RNA held back in the nucleus.
With knock-down of pros (prospero), the record shows phenotype, replicate 1 = poly(A) RNA held back in the nucleus.
With knock-down of CG34268 the results were phenotype, replicate 1 = poly(A) RNA held back in the nucleus.
CSN4 (COP9 signalosome subunit 4) showed phenotype, replicate 1 = poly(A) RNA held back in the nucleus.
After knock-down of RpS7 (Ribosomal protein S7), the screen gave phenotype, replicate 1 = poly(A) RNA held back in the nucleus.
dUTPase (Deoxyuridine triphosphatase) showed phenotype, replicate 1 = poly(A) RNA held back in the nucleus.
After knock-down of Dis3 the results were phenotype, replicate 1 = poly(A) RNA held back in the nucleus.
Silencing of CG34231 resulted in: phenotype, replicate 1 = poly(A) RNA held back in the nucleus.
With knock-down of sens (senseless), the screen gave phenotype, replicate 1 = poly(A) RNA held back in the nucleus; phenotype, replicate 2 = poly(A) RNA held back in the nucleus.
For Klc (Kinesin light chain), the values are phenotype, replicate 1 = poly(A) RNA held back in the nucleus.
Depletion of CG9646 gave: phenotype, replicate 1 = poly(A) RNA held back in the nucleus.
Ts (Thymidylate synthase) gave phenotype, replicate 1 = poly(A) RNA held back in the nucleus.
For CG8006, the entry reads phenotype, replicate 1 = poly(A) RNA held back in the nucleus.
Silencing of mim (missing-in-metastasis) came out at: phenotype, replicate 1 = poly(A) RNA held back in the nucleus.
Silencing of TwdlF (TweedleF) resulted in: phenotype, replicate 1 = poly(A) RNA held back in the nucleus.
With knock-down of Prosbeta6 (Proteasome beta6 subunit), the record shows phenotype, replicate 1 = poly(A) RNA held back in the nucleus.
Against gt (giant), the entry reads phenotype, replicate 1 = poly(A) RNA held back in the nucleus.
Against CG31068, the entry reads phenotype, replicate 1 = poly(A) RNA held back in the nucleus.
Knock-down of eIF4E3 (eukaryotic translation initiation factor 4E3) came out at: phenotype, replicate 1 = poly(A) RNA held back in the nucleus.
Or82a (Odorant receptor 82a) showed phenotype, replicate 1 = poly(A) RNA held back in the nucleus.
With knock-down of Snrk (SNF related kinase), the screen gave phenotype, replicate 1 = poly(A) RNA held back in the nucleus.
After knock-down of noi (noisette), the screen gave phenotype, replicate 1 = poly(A) RNA held back in the nucleus; phenotype, replicate 2 = poly(A) RNA held back in the nucleus.
Knock-down of CG3081 came out at: phenotype, replicate 1 = poly(A) RNA held back in the nucleus.
Knock-down of tum (tumbleweed) came out at: phenotype, replicate 1 = cells much enlarged.
Against Csk (C-terminal Src kinase), the values are phenotype, replicate 1 = poly(A) RNA held back in the nucleus.

Records above whose gene name begins with S or s (3):
Setd3 (SET domain containing 3) — phenotype, replicate 1: poly(A) RNA held back in the nucleus
sens (senseless) — phenotype, replicate 1: poly(A) RNA held back in the nucleus; phenotype, replicate 2: poly(A) RNA held back in the nucleus
Snrk (SNF related kinase) — phenotype, replicate 1: poly(A) RNA held back in the nucleus

Next records:
Silencing of CG5543 gave: phenotype, replicate 1 = poly(A) RNA held back in the nucleus.
nxf2 (nuclear RNA export factor 2) gave phenotype, replicate 1 = poly(A) RNA held back in the nucleus.
Against simj (simjang), the values are phenotype, replicate 1 = poly(A) RNA held back in the nucleus.
stan (starry night) scored phenotype, replicate 1 = poly(A) RNA held back in the nucleus; phenotype, replicate 2 = poly(A) RNA held back in the nucleus.
stwl (stonewall) gave phenotype, replicate 1 = poly(A) RNA held back in the nucleus.
CG3726 scored phenotype, replicate 1 = poly(A) RNA held back in the nucleus.
For Trpml + CG42638, the values are phenotype, replicate 1 = poly(A) RNA held back in the nucleus.
After knock-down of Proc (Proctolin), the screen gave phenotype, replicate 1 = poly(A) RNA held back in the nucleus.
Against CG12643 the deposit lists phenotype, replicate 1 = poly(A) RNA held back in the nucleus.
Silencing of Nagk (N-acetylglucosamine kinase) resulted in: phenotype, replicate 1 = poly(A) RNA held back in the nucleus.
Against Rpn8 (Regulatory particle non-ATPase 8), the entry reads phenotype, replicate 1 = poly(A) RNA held back in the nucleus.
Knock-down of CG12213 came out at: phenotype, replicate 1 = poly(A) RNA held back in the nucleus.
Silencing of CG33095 gave: phenotype, replicate 1 = poly(A) RNA held back in the nucleus.
Knock-down of RpS14a (Ribosomal protein S14a) came out at: phenotype, replicate 1 = poly(A) RNA held back in the nucleus.
CG30105 showed phenotype, replicate 1 = poly(A) RNA held back in the nucleus.
After knock-down of CG5013 the results were phenotype, replicate 1 = poly(A) RNA held back in the nucleus.
Against Atf3 (Activating transcription factor 3), the values are phenotype, replicate 1 = poly(A) RNA held back in the nucleus.
Knock-down of dan (distal antenna) came out at: phenotype, replicate 1 = poly(A) RNA held back in the nucleus.
For Ctu1 (Cytosolic thiouridylase subunit 1), the entry reads phenotype, replicate 1 = poly(A) RNA held back in the nucleus.
Against CG7333 the deposit lists phenotype, replicate 1 = poly(A) RNA held back in the nucleus.
CG31787 showed phenotype, replicate 1 = poly(A) RNA held back in the nucleus.
Against Ran-like, the values are phenotype, replicate 1 = poly(A) RNA held back in the nucleus.
Depletion of Cap-H2 (Chromosome associated protein H2) resulted in: phenotype, replicate 1 = poly(A) RNA held back in the nucleus.
